Reference: PubChem BioAssay AID504467 (National Center for Advancing Translational Sciences (NCATS), 2011)
The whole screen tested about 330,000 compounds, of which about 7,700 (2.3%) were called active. The shares of active, inactive and inconclusive entries below differ from those in the screen. Calls follow the shape of the dose curve; as a rule, active = well fitted inhibition curve with a large enough effect; inconclusive = small, poorly fitted or top-dose-only effect, or effect the other way; inactive = flat fitted curve, though single readings scatter. Potencies of inconclusive entries are doubtful fits and often do not repeat.

test: qHTS screen for small molecules that inhibit ELG1-dependent DNA repair in human embryonic kidney (HEK293T) cells expressing luciferase-tagged ELG1; conditions: HEK293T ELG1-luciferase reporter, luminescence, 16 h, DNA damage induced by 5-fluorouridine; activity change, negative = inhibition: at 46.1 µM (top of the series); also: nearly all actives have a fitted effect of over 55% in size
In short: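 In this reporter screen, reduction of luminescence relative to DMSO vehicle indicated activity. Compounds and 5-fluorouridine were added together to 2,000 cells per well, incubated for 16 hr at 37 °C, then developed with ONE-Glo.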
% is scaled to controls: 0 for no effect and ±100 for the full control effect; potency is read from the fitted curve at half-maximal effect.

Structure (SMILES) | Potency | activity change, negative = inhibition
COc1cc(Cc2nc3ccc(S(=O)(=O)N4CCOCC4)cc3[nH]2)cc(OC)c1OC | inconclusive: 23.1 µM [inhibitor, partial curve, poor fit] | 
Cc1ccc(Cl)cc1Nc1nc(-c2sc(NC(=O)c3ccccc3)nc2C)cs1 | inconclusive: 3.66 µM [inhibitor, full curve, poor fit] | 
Cc1cccc(C(=O)Nc2ccn(C)n2)c1 | inconclusive: 6.51 µM [activator, partial curve] | 
COC(=O)/C=C1\N/C(=N/c2nc(C)c3cc(OC)ccc3n2)NC1=O | inconclusive: 2.91 µM [inhibitor, full curve] | 
CCS(=O)(=O)c1c([N+](=O)[O-])ncn1C |  | inactive: 26.7%
Cc1cccc(CN2CCN(CC(=O)NCCCN3CCCC3=O)C2=O)c1 | inconclusive: 4.11 µM [activator, partial curve, poor fit] | 
COc1cc(O)ccc1/C=N/NC(=O)c1ccc([N+](=O)[O-])cc1 |  | inactive: -2.85%
O=C(CSc1cccc2cccnc12)OCC(=O)c1ccc(Br)cc1 |  | inactive: 0.0449%
COC(=O)c1sccc1NC(=O)c1ccc(C(C)C)cc1 | inconclusive: 35.5 µM [activator, partial curve, poor fit] | 
O=C(NC1CCCCC1)c1cc(C2CC2)on1 | inconclusive: 18.3 µM [activator, partial curve] | 
COc1cccc(N2CCN(C(=O)c3c(C)nn(-c4ccccc4)c3C)CC2)c1 | inconclusive: 23.1 µM [inhibitor, partial curve, poor fit] | 
COc1ccc(N=CC2=C(O)CCCC2=O)cc1 | inconclusive: 18.4 µM [activator, partial curve, poor fit] | 
COc1ccc(COC(=O)C2=C(C)NC(=O)NC2c2ccccc2)cc1 (stereo not given) | inconclusive: 14.6 µM [inhibitor, partial curve] | 
O=C(N=Nc1c(O)[nH]c2ccccc12)c1cc(-c2ccc(F)cc2)n[nH]1 |  | inactive: 0.704%
CCOC(=O)c1sc(NC(=O)CC)nc1C |  | inactive: 12.8%
Cc1cccc(N(Cc2ccccc2)C(=O)c2ccccc2S(C)(=O)=O)c1 |  | inactive: 0.327%
CCCCCNc1nc(N2CCCC2)c2c(c1C#N)CCN(C)C2 |  | inactive: -7.17%
O=C(Nc1ccc(F)cc1)c1ccc(NC(=O)C2CCCO2)cc1 (stereo not given) | inconclusive: 20.6 µM [activator, single point] | 
CCOc1cc(/C=N/n2c(C)nc3ccccc3c2=O)ccc1O |  | inactive: -2.17%
Cc1ccc(NC(=O)N2C(=O)C3(OCCO3)c3ccccc32)cc1 | inconclusive: 10.3 µM [activator, partial curve] | 
Cc1ccc(N(C)S(=O)(=O)c2cccc(C(=O)Nc3ccc(N4CCOCC4)cc3)c2)cc1 | active: 16.4 µM | 
Cc1cc(C)c(NC(=O)c2cn3c4c(c(N5CCN(C)CC5)c(F)cc4c2=O)OCC3C)c(C)c1 (stereo not given) |  | inactive: 3.42%
O=C(Nc1cccc(C(F)(F)F)c1)N1CCC(c2nc(-c3ccc(F)cc3)no2)CC1 | inconclusive: 23.1 µM [inhibitor, single point] | 
COc1ccc2c(c1)c(=O)c(Br)c(C)n2Cc1ccccc1 | inconclusive: 25.9 µM [inhibitor, partial curve] | 

Structure (SMILES) | Potency | activity change, negative = inhibition
CCOc1cc(C(=O)NC)cc(Br)c1OCc1ccccc1 | inconclusive: 32.6 µM [inhibitor, partial curve, poor fit] | 
O=C(NN=Cc1ccccc1C(=O)O)c1cccc(S(=O)(=O)Nc2cccc(C(F)(F)F)c2)c1 | inconclusive: 9.2 µM [activator, partial curve] | 
O=C(COc1ccccc1)NCc1ccccc1 | inconclusive: 20.6 µM [activator, single point] | 
CC(C)CC[n+]1ccn(-c2nc3ccccc3nc2[N-]S(=O)(=O)c2ccc(Cl)cc2)c1 |  | inactive: -3.91%
OCCC1CN(Cc2nc3ccccc3s2)CCN1CCc1ccccc1 (stereo not given) |  | inactive: -10.1%
Cc1ccccc1OCC(=O)Nc1ccccc1N1CCOCC1 | inconclusive: 29.1 µM [inhibitor, partial curve, poor fit] | 
COCc1cc(=O)[nH]c(N2CCN(c3ccccc3OC)CC2)n1 | inconclusive: 5.17 µM [inhibitor, partial curve, poor fit] | 
CC1CCCC(C)N1C(=O)c1cccc2c1-c1ccccc1/C2=N/O (stereo not given) | active: 20.6 µM | 
COc1ccc(C2=NN(C(C#N)c3ccc(OC)cc3)C(c3ccccc3)C2)cc1 (stereo not given) | inconclusive: 11.6 µM [activator, partial curve] | 
Cc1cc(=O)oc2cc(OCC(=O)N/N=C/c3ccccc3[N+](=O)[O-])ccc12 | inconclusive: 11.6 µM [inhibitor, partial curve] | 
COc1ccc(-c2cc(C(=O)N3CCN(c4ccccc4)CC3)c3ccccc3n2)cc1OC | active: 16.4 µM | 
COc1ccc(C(C(=O)NC2CCCC2)N(Cc2ccco2)C(=O)c2snc(C(N)=O)c2N)cc1OC (stereo not given) | inconclusive: 29.1 µM [inhibitor, single point] | 
CN(Cc1ccccc1)C1=CC(=[N+]2CCCCC2)CC(C)(C)C1 | inconclusive: 1.46 µM [inhibitor, partial curve] | 
CC(c1ccco1)N(C(=O)c1ccc(C(F)(F)F)cc1)c1ccccn1 (stereo not given) |  | inactive: -7.12%
N#CC1=C(N)N2C(=C(C#N)C1c1cccc(Br)c1)Nc1ccccc12 (stereo not given) | active: 2.91 µM | 
O=c1[nH]c2ccc(NC(=S)Nc3ccc(F)cc3)cc2[nH]1 | inconclusive: 32.6 µM [inhibitor, single point] | 
CC(C)(C)C(=O)NC(=S)NNC(=O)c1ccc(-c2ccccc2)cc1 | inconclusive: 4.11 µM [inhibitor, partial curve] | 
O=c1cc(-c2ccccc2)[nH]n2cnnc12 |  | inactive: 17.1%
O=S(=O)(c1ccc(Oc2ccc3oc4ccccc4c3c2)nc1)N1CCCC1 | inconclusive: 32.6 µM [inhibitor, single point] | 
CCOC(=O)c1c(C)[nH]c(C(=O)OCC(=O)NCc2ccc(OC)c(OC)c2)c1C | inconclusive: 14.6 µM [inhibitor, partial curve, poor fit] | 
COCCn1c(SC(C)C(=O)NCC2CCCO2)nc2sc3c(c2c1=O)CCC3 (stereo not given) | inconclusive: 5.8 µM [inhibitor, single point] | 
CCOc1ccc(C(=O)COC(=O)c2c(-c3ccccc3)noc2C)cc1 |  | inactive: -25.4%
COc1cc(NC(=O)C(C)Oc2ccccc2)c(OC)cc1NC(=O)c1ccccc1 (stereo not given) | active: 14.6 µM | 
O=C(c1c[nH]c2ccccc12)N1CCN(c2ccccc2)CC1 |  | inactive: 3.75%

Random excerpt: four entries already listed.
Structure (SMILES) | Potency | activity change, negative = inhibition
OCCC1CN(Cc2nc3ccccc3s2)CCN1CCc1ccccc1 (stereo not given) |  | inactive: -10.1%
CCS(=O)(=O)c1c([N+](=O)[O-])ncn1C |  | inactive: 26.7%
CC(C)(C)C(=O)NC(=S)NNC(=O)c1ccc(-c2ccccc2)cc1 | inconclusive: 4.11 µM [inhibitor, partial curve] | 
O=C(CSc1cccc2cccnc12)OCC(=O)c1ccc(Br)cc1 |  | inactive: 0.0449%

More entries

Structure (SMILES) | Potency | activity change, negative = inhibition
CC(C)OCCCNc1nc2c(c(=O)n(Cc3ccccc3F)c(=O)n2C)n1C | inconclusive: 20.6 µM [inhibitor, single point] | 
Cc1ccc2nc(-c3ccccn3)[nH]c2c1 | inconclusive: 2.59 µM [activator, partial curve] | 
O=C(c1ccccc1)N1CCN(c2ccc(Cl)cc2)CC1 | inconclusive: 17.8 µM [inhibitor, partial curve, poor fit] | 
CC1=NN(c2nc(-c3ccc(C)cc3)cs2)C(=O)C1N=Nc1ccccc1O (stereo not given) | inconclusive: 3.26 µM [inhibitor, single point] | 
COc1ccc(C(CC(=O)Nc2cc(C)ccn2)N2Cc3ccccc3C2=O)cc1 (stereo not given) |  | inactive: -17%
Cc1ccc(O)c(NC(=O)C2CCCN2C(=O)OCc2ccccc2)c1 (stereo not given) |  | inactive: -0.386%
Cc1c(O)ccc2c(-c3ccccc3)cc(=O)oc12 | inconclusive: 5.8 µM [inhibitor, partial curve] | 
Cc1nn2c(N3CCCC3)cc(C(C)C)nc2c1-c1ccccc1 |  | inactive: 11.7%
Cc1ccc(C2c3c(oc4ccccc4c3=O)C(=O)N2CCCN2CCOCC2)o1 (stereo not given) |  | inactive: 16.6%
Clc1ccc(Nc2nc3cccnc3s2)cc1 | inconclusive: 8.2 µM [activator, partial curve] | 
CC(C)Cn1c(-c2cccs2)nc2ccccc21 | inconclusive: 14.6 µM [inhibitor, partial curve, poor fit] | 
CCN(CC)S(=O)(=O)c1cccc(NC(=O)c2cccc(S(=O)(=O)N3CCCC3)c2)c1 | inconclusive: 20.6 µM [inhibitor, single point] | 
CCOc1cc(-c2c(C#N)c(N)nc3c2CCCC3C)ccc1O (stereo not given) | inconclusive: 16.4 µM [inhibitor, single point] | 
C/C(CC(=O)Nc1ccc(N(C)C)cc1)=N\NC(=O)c1ccccn1 | inconclusive: 20.6 µM [activator, partial curve] | 
COC(=O)c1ccc(NC(=O)CN2CCN(S(=O)(=O)c3ccc(Br)cc3)CC2)cc1 |  | inactive: 14.8%
CC(=O)c1ccc(C(=O)Nc2sc3c(c2C(N)=O)CCN(Cc2ccccc2)C3)cc1 |  | inactive: 6.88%
O=C(CNS(=O)(=O)c1c(F)cc(F)cc1Br)OCC(=O)N1CCCC1=O | inconclusive: 18.3 µM [activator, single point] | 
O=C(O)/C=C/c1ccc(-c2cccc(C(F)(F)F)c2)o1 | inconclusive: 29.1 µM [activator, single point] | 
COc1ccc(/C(C)=N/Nc2nc3ccccc3n3cnnc23)cc1OC | inconclusive: 16.4 µM [inhibitor, single point] | 
COC(=O)/N=C(/Cc1ccc(OC)cc1)c1ccc(OC)cc1 | inconclusive: 20.6 µM [activator, partial curve] | 
COc1cc2c(cc1NC(=O)CSc1nnc(Cc3cccs3)n1C)oc1ccccc12 | inconclusive: 18.4 µM [inhibitor, partial curve, poor fit] | 
O=c1c(Cl)c(NC2CC2)cnn1-c1ccccc1 | inconclusive: 29.1 µM [activator, single point] | 
